PubChem BioAssay AID1259314 – Drosophila RNAi Screening Center | 2017
Aim: 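Genes whose knock-down alters cell survival under toxic manganese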 (primary screen). System: Drosophila S2R+ cells. Knock-down reagent: long dsRNA against Drosophila genes. Time to read-out: 5 days (4 days knock-down, then 1 day metal exposure). Conditions: manganese chloride added to 15 mM for 24 hours. Read-out: 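Cellular ATP measured by luciferase light, scaled to the plate mean, averaged across replicates and z-scored over plates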. Direction: mean ATP z-score: higher = more ATP than the plate average, more viable cells under manganese. Rule for the call: 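a mean ATP z-score past 1.5 in either direction is called active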. Meaning of the calls: active = strong ATP change, up or down; inactive = no strong ATP change.
Shown is a random part of about 3,100 deposited reagents. 289 of them (9.3%) count as active. 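Active includes both higher and lower ATP than plate average; check the z-score sign for direction.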 Entries without a mark were called inactive. The numbers tell different reagents against one gene apart. Names joined by + are all predicted targets of the reagent. No sequences are given here. The record does not give: the amount of reagent.

gene | reagent | mean ATP z-score
CG10337 | 1 | -0.489
CG10337 | 2 | -0.654
Cpes | 1 | 0.432
GC | 1 | 0.675
GC | 2 | -0.64
ed | 1 | -1.22
ed | 2 | 1
ed | 3 | 0.343
CG2698 | 1 | -0.439
CG2698 | 2 | 0.523
Gr22a | 1 | 1.21
Or33c | 1 | 1.04
MsR1 | 1 | -0.152
MsR1 | 2 | 0.372
ppk20 | 1 | 0.181
ppk20 | 2 | 0.191
5-HT7 | 1 | -0.201
5-HT7 | 2 | 0.125
CG9444 | 1 | -0.41
mthl12 | 1 | -0.566
Balat + asRNA:CR43469 | 1 | -0.156
Balat + asRNA:CR43469 | 2 | -0.359
SdhC | 1 | -1.06
SdhC | 2 | -0.932
ppk3 | 1 | 0.51
ppk3 | 2 | 0.428
lili | 1 | -0.449
lili | 2 | 0.0757
sei | 1 | -1.07
CG10019 | 1 | -0.0482
CNT2 | 1 | 2.66 (active)
Ir25a | 1 | 1.45
Ir25a | 2 | -0.797
Sfxn2 | 1 | -0.0467
Sfxn2 | 2 | -0.152
Kap-alpha1 | 1 | -1.63 (active)
ninaE | 1 | 0.967
ninaE | 2 | -0.553
Osi22 | 1 | 0.287
Osi22 | 2 | -0.577
CG31213 | 1 | 0.238
CG31213 | 2 | 0.842
out | 1 | -0.467
out | 2 | 0.707
CG13077 | 1 | 1.52 (active)
CG13077 | 2 | -0.756
Alg12 | 1 | 0.242
Alg12 | 2 | -0.992
Sugb | 1 | 0.279
Sugb | 2 | -0.993
Flo2 | 1 | 2.52 (active)
Flo2 | 2 | 0.14
CG5646 | 1 | 0.4
CG5646 | 2 | 0.48
fusl | 1 | 0.409
fusl | 2 | -0.997
Ir10a | 1 | 1.75 (active)
Ir10a | 2 | -0.266
Ir10a | 3 | -0.454
PGRP-SB2 | 1 | -0.216
Loxl2 | 1 | -0.745
Or13a | 1 | -0.0476
Or13a | 2 | 1.37
Hmt-1 | 1 | 0.53
Hmt-1 | 2 | -0.543
PGAP3 | 1 | 0.616
PGAP3 | 2 | 0.00717
Mgtor | 1 | -1.3
Mgtor | 2 | -1.46
RFeSP | 1 | -2.36 (active)
RFeSP | 2 | -3.13 (active)
Osi2 | 1 | -0.548
Osi2 | 2 | 3.21 (active)
rdgB | 1 | 0.797
rdgB | 2 | -0.613
Ser | 1 | -0.124
Ser | 2 | -1.09
pain | 1 | 0.205
pain | 2 | 0.168
ACXE | 1 | -0.485
ppk12 | 1 | 0.275
ppk12 | 2 | -0.468
CG13920 | 1 | 0.335
CG13920 | 2 | 0.64
Sr-CI | 1 | 0.229
Sr-CI | 2 | 0.156
CG33234 | 1 | 0.643
CG33234 | 2 | 0.695
MsR2 | 1 | -0.0527
MsR2 | 2 | -1.29
MsR2 | 3 | -0.0522
rost | 1 | 0.137
Lerp | 1 | -0.0406
Lerp | 2 | 0.524
Lerp | 3 | 0.311
CG33296 | 1 | 0.102
CG33296 | 2 | 1.52 (active)
CG6660 | 1 | -0.0913
CG12194 | 1 | -0.345
CG12194 | 2 | 1.26
Irk3 | 1 | 0.902
Orct | 1 | 0.0206
Orct | 2 | -1.57 (active)
CG11857 | 1 | -0.25
Fas2 | 1 | 0.745
Fas2 | 2 | 0.92
Fas2 | 3 | 0.0779
CG10804 | 1 | 1.1
CG10804 | 2 | 0.148
CG12209 | 1 | -0.223

Copied from the list.
ed #2, mean ATP z-score: 1
Orct #2, mean ATP z-score → -1.57 (active)
Under “mean ATP z-score”, Alg12 #2 shows -0.992
Result for Or33c under “mean ATP z-score”: 1.04
Value for mthl12 in “mean ATP z-score”: -0.566
RFeSP #2, mean ATP z-score: -3.13 (active)
